From article PMC3936769 come the findings set out here.

No constants are given. Whether binding was seen depends on the method and setting. In cells and extracts the contact can be indirect. Here binding means that the protein was enriched with, or labelled near, the bait; the list need not be complete. Sequences can lack the tags named with a protein.

The experiment deals with T1, aIF2-γHis, His-tagged aIF2-γ expressed in Sulfolobus solfataricus (Sulfolobus solfataricus) (UniProt Q980A5).
T1 sequence: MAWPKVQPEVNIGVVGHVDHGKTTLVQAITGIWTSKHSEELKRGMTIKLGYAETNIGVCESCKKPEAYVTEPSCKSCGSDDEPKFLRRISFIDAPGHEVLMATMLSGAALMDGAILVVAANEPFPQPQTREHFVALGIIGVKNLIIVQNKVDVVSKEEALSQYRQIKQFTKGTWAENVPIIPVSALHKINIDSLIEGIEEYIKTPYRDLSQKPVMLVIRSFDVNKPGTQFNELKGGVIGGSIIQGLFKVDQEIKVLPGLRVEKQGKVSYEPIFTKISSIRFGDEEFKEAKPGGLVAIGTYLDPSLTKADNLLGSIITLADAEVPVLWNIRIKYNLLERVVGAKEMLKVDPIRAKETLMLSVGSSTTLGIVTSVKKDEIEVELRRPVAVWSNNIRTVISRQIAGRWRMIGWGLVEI
In words: affinity purification with mass spectrometry; aIF2-γHis captured by Ni-affinity chromatography from extracts of Sso PH1-16(pMJ05-γHis) after prolonged stationary phase and 3 h after outgrowth; buffer A (50 mM Tris-HCl pH 8.0, 300 mM NaCl, 15 mM imidazole, 10 mM β-mercaptoethanol), elution with 250 mM imidazole; Coomassie-stained gel, Sso2509 band identified by mass spectrometry; mock purification from PH1-16(pMJ05).

B1: aIF2-α, endogenous (protein, UniProt Q97Z79 1-266)
chain: MIYSRSKLPSEGEILIATVKQVFDYGSYVSLDEYGGLQAFLPWSEVSSKWVKNIRDVLKENRKVIVKVIRVDRRKGTVDVSLKKVTDDERRKKNLQWKKIQRLDKILELVSQKLKLSEKDAWEQVAWKLEAKYGDPITAIEKAVKEGEKILIDAGVPEIWVKPLLEEASKHAEERKVKMSGLITVRTNEPLGVEKIKEVISKALENIEQDYESLLNIKIYTIGAPRYRVDVVGTNPKEASEALNQIISNLIKIGKEENVDISVVKK
Regarding B1, the binding result is listed as “binds”.
